# The other results are listed elsewhere or left out.
# By UniProt entry, the sequences of proteins in these tests, tags left out. Where a name states a change or a piece, a line headed by the entry shows the natural chain unless it says otherwise.
# UniProt Q9NYB0: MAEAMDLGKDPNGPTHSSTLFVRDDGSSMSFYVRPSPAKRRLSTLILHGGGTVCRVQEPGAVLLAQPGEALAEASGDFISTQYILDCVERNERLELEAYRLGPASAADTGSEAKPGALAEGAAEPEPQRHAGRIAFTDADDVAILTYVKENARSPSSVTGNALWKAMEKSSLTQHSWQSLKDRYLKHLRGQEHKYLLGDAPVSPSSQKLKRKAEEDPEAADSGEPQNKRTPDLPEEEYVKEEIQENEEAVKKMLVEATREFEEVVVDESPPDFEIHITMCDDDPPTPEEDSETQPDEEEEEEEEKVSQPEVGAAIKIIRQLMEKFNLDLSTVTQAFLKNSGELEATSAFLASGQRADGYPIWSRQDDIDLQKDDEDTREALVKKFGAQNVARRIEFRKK
# UniProt Q13148, whole entry, looked up: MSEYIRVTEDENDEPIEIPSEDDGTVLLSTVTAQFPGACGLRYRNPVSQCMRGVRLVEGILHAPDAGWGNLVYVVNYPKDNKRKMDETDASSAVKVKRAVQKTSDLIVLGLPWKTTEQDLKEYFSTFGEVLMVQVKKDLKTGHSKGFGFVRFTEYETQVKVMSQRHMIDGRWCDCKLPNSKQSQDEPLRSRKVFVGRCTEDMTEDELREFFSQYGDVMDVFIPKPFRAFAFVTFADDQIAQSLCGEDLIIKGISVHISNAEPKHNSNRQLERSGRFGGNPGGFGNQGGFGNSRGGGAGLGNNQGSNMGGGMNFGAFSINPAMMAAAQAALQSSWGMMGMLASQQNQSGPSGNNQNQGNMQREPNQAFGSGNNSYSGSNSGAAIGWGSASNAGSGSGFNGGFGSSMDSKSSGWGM
# UniProt Q9P2M4: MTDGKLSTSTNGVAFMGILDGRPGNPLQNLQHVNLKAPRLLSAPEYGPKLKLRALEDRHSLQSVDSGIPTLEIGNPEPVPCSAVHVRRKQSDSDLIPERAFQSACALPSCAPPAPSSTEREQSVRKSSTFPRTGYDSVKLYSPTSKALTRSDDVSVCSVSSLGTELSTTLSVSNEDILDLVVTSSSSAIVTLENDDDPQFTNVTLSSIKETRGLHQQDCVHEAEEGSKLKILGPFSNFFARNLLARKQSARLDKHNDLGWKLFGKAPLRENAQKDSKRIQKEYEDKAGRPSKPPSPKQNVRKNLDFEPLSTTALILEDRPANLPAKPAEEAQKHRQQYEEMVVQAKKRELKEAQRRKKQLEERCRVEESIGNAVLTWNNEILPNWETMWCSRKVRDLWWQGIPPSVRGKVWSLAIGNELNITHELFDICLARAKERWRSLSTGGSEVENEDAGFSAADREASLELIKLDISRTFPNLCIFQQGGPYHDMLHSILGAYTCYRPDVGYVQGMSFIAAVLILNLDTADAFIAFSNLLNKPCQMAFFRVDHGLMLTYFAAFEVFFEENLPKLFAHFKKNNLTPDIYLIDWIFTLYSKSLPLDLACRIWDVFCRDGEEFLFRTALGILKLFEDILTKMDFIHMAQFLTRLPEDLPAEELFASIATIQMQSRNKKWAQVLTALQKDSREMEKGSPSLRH
# UniProt P10646, whole entry, looked up: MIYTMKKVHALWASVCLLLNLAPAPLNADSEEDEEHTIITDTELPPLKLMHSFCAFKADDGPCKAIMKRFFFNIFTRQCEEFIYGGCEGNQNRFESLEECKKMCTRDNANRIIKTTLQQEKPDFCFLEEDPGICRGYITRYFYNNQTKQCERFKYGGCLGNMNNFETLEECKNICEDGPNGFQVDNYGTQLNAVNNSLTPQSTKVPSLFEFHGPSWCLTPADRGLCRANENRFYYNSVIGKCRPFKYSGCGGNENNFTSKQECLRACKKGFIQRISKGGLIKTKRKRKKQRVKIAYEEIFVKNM
# UniProt Q93075: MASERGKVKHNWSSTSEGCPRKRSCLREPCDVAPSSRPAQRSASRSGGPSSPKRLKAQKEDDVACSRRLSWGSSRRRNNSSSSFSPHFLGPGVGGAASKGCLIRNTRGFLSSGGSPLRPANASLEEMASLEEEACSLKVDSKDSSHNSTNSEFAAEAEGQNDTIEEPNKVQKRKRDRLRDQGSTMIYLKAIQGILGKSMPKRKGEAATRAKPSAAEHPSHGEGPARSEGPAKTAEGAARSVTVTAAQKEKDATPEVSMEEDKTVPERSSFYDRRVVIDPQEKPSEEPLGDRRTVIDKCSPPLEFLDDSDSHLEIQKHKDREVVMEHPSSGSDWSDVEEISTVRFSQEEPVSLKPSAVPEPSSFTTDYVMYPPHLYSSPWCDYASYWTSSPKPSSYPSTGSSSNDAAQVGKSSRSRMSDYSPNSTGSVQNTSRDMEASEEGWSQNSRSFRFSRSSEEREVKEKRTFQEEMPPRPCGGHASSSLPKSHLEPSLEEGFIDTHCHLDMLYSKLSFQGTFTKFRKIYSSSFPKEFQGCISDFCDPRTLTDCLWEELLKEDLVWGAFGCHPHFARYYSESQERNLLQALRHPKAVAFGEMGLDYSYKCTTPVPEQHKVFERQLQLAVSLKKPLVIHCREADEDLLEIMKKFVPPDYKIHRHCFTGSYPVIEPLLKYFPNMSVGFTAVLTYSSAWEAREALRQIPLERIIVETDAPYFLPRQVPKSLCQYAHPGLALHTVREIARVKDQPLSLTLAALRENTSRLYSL
# UniProt Q9H2K8: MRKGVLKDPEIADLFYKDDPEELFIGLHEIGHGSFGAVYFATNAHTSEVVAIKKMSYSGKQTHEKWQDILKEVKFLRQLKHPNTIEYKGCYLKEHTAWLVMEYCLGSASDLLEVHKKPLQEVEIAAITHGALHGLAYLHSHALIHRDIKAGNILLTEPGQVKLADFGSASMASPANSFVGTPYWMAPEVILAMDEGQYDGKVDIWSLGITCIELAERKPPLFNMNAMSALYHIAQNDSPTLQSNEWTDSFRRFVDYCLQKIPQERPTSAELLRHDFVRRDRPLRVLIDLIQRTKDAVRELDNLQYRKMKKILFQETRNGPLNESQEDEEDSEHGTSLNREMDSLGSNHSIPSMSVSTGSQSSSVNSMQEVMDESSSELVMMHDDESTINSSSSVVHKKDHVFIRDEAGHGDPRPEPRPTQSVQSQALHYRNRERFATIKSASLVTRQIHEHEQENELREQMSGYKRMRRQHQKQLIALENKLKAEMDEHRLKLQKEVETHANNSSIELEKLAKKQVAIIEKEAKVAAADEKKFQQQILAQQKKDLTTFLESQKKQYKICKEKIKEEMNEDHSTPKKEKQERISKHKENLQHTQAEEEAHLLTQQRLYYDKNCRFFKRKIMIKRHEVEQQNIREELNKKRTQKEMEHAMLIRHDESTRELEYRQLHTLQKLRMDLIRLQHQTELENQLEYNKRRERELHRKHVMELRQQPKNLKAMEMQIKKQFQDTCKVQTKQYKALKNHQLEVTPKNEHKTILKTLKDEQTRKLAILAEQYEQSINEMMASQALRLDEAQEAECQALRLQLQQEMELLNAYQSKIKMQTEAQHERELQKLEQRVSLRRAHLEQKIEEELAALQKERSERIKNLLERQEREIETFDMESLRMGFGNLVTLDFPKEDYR
# UniProt Q9UI15: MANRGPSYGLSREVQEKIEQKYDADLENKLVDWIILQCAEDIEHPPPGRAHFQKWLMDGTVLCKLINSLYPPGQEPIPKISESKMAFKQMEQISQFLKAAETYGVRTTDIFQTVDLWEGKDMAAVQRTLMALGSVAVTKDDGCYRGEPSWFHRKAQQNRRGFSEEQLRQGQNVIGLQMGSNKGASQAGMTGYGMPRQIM
# UniProt P19484: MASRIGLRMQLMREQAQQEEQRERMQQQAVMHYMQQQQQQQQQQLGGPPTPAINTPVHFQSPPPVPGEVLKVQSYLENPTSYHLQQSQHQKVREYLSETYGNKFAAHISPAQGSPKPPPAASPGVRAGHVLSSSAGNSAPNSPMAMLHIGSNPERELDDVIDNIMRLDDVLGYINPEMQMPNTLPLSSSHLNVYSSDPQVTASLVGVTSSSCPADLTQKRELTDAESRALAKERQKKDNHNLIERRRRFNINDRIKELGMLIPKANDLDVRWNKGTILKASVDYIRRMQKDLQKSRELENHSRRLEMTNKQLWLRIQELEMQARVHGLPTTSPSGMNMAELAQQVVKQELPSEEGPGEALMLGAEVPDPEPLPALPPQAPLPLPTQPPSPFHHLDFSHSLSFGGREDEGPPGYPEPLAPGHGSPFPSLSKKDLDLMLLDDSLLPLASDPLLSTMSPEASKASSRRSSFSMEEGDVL
# UniProt O14907: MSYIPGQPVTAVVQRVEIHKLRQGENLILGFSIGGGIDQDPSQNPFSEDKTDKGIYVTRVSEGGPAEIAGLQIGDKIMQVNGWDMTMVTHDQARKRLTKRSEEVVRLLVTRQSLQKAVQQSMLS
# UniProt Q6P1N9: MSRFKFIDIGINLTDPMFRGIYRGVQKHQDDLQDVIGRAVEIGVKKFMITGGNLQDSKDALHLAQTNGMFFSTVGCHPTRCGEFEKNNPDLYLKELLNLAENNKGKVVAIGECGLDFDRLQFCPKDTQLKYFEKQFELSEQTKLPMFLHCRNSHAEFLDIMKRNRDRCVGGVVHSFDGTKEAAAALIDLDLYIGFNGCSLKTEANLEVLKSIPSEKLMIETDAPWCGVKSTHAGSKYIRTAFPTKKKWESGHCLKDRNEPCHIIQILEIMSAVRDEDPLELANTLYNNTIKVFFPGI
# Tests used:
# Test in all cases: log2 fold change, soluble protein after heating vs DMSO (PISA); higher = thermal stabilisation; K562 lysate, 10 uM; active = over 0.2 and 3.5 SD of the protein, either way, in both replicates (recomputed)
# [1] = compound: NCC(=O)Nc1ccc(-n2nc(C(F)(F)F)cc2-c2ccc3c(ccc4ccccc43)c2)cc1
# How it was run: (§1)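 Quantification was by TMTpro 16plex LC-MS/MS with equalised channel sums, applied to the supernatant after 21,000xg for 90 min. Samples were crude K562 extract at 1 mg/mL protein in PBS pH 7.4 with 1 mM MgCl2, treated with 10 μM compound for 30 min, heated for 3 min across 48°C-58°C, pooled and brought to 0.5% NP-40 at 4°C. Values are log-two fold changes in thermal stability relative to solvent controls, from duplicates.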
# vorinostat = compound: O=C(CCCCCCC(=O)Nc1ccccc1)NO [vorinostat]
# How it was run: as §1
# silmitasertib = compound: O=C(O)c1ccc2c(c1)nc(Nc1cccc(Cl)c1)c1ccncc12 [silmitasertib]
# How it was run: as §1
# [2] = compound: O=C1NC(=O)C(c2cnc3ccccn23)=C1c1cn2c3c(cc(F)cc13)CN(C(=O)N1CCCCC1)CC2
# How it was run: as §1
# entospletinib = compound: c1cn2cc(-c3ccc4cn[nH]c4c3)nc(Nc3ccc(N4CCOCC4)cc3)c2n1 [entospletinib]
# How it was run: as §1
Target,log2 fold change [1],log2 fold change (vorinostat),log2 fold change (silmitasertib),log2 fold change [2],log2 fold change (entospletinib)
TERF2IP (UniProt Q9NYB0),inactive: 0.038,inactive: 0.072,inactive: 0.008,inactive: 0.011,inactive: 0.011
TARDBP (UniProt Q13148),inactive: 0.044,active: -0.44,inactive: 0.086,inactive: -0.268,inactive: -0.027
TBC1D14 (UniProt Q9P2M4),inactive: -0.02,inactive: -0.169,inactive: 0.025,inactive: -0.076,inactive: -0.022
TFPI isoform 2 (UniProt P10646),inactive: 0.184,,,inactive: 0.019,
TATDN2 (UniProt Q93075),inactive: 0.063,inactive: -0.061,inactive: -0.157,inactive: 0.006,inactive: -0.056
TAOK3 (UniProt Q9H2K8),inactive: 0.061,inactive: 0.041,inactive: 0.189,inactive: -0.021,inactive: -0.025
TAGLN3 (UniProt Q9UI15),inactive: 0.015,inactive: -0.093,inactive: -0.056,,inactive: -0.014
TFEB (UniProt P19484),inactive: 0.201,,,inactive: 0.036,
TAX1BP3 (UniProt O14907),inactive: -0.09,inactive: 0.012,inactive: 0.056,,inactive: -0.005
TATDN1 (UniProt Q6P1N9),inactive: 0.004,inactive: 0.084,inactive: -0.001,inactive: -0.025,inactive: -0.022

# Source: the supplement of paper PMC10849652
